For experiment [1], the target named is heterochromatin protein 1 alpha (human (endogenous in hLCSCs from Huh7)) (UniProt P45973). The experiment can be described thus: co-IP; repeat (sequential) co-IP from hLCSC lysates (TLR4 overexpression or knockdown): first an HP1α IP, then an HP1β IP of the HP1α immunoprecipitates, then Western blotting with anti-HP1γ. In general terms: In western blotting, separated proteins are transferred to a membrane and probed.

Chains of the proteins cited; added tags and fusions are not shown.
UniProt P45973: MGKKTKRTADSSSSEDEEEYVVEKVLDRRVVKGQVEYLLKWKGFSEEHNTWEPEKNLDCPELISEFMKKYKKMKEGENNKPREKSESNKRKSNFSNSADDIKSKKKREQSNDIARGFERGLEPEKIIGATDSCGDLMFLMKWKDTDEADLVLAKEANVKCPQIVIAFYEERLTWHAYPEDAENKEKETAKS
UniProt P83916: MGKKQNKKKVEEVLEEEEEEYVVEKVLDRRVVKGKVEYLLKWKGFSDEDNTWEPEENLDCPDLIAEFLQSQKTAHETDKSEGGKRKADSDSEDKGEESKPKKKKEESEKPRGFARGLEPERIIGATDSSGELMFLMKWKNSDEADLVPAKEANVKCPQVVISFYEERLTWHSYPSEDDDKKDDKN
UniProt Q13185: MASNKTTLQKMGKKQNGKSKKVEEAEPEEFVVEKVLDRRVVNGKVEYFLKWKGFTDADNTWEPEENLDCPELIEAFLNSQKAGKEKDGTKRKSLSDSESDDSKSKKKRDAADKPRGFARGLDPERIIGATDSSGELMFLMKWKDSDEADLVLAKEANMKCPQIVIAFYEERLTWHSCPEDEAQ

For experiment [2], the target named is heterochromatin protein 1 beta (human (endogenous in hLCSCs from Huh7)) (UniProt P83916). The experiment is described as above.

Results are given in words; binding and its absence hold for the method and conditions named. In cells and extracts the contact can be indirect. Some binding calls cover weakened binding; strength is not graded here.

The values below come from publication PMC5980149.

For the substance “heterochromatin protein 1 beta (from UniProt P83916 1-185)”, in experiment [1], the binding result is on record as “binds”.
For “heterochromatin protein 1 gamma (from UniProt Q13185 1-183)”, in experiment [2], the binding result was “binds”.
